Results reported in paper doi:10.1101/2025.04.22.650084.
Results are given in words; binding and its absence hold for the method and conditions named. For some of these results: Binding can be weak; no strength is given. For some of these results: Sequences can lack the tags named with a protein. For some of these results: In cells and extracts the contact can be indirect.

What was measured:
[1] = target: T1, U1-70k (full-length, yeast two-hybrid fusion) (Arabidopsis thaliana) (UniProt Q42404); experiment: two-hybrid
T1 sequence: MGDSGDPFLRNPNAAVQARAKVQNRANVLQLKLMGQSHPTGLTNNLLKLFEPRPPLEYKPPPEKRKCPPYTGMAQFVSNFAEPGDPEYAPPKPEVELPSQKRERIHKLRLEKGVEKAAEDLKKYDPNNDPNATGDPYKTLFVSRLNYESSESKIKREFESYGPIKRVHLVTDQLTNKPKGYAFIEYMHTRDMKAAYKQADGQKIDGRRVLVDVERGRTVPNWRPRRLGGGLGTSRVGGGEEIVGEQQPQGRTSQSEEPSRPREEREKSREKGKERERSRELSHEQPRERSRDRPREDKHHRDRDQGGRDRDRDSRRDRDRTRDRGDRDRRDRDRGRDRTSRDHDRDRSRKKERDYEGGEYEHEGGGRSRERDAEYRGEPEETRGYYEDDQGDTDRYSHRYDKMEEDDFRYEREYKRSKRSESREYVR

[2] = target: T2, cYFP-U1-70k (Arabidopsis thaliana) (UniProt Q42404); experiment: split reporter
T2 sequence: T1 sequence

[3] = target: U1-70kΔ5aa (BiFC fusion) (Arabidopsis thaliana) (UniProt Q42404); experiment: split reporter
Flag-4Myc-FVE = experiment: co-IP
[4] = target: N-terminal region of U1-70k (yeast two-hybrid fusion) (Arabidopsis thaliana); experiment: two-hybrid
[5] = target: U1-70kΔ5aa (five-aa deleted U1-70k variant, yeast two-hybrid fusion) (Arabidopsis thaliana) (UniProt Q42404); experiment: two-hybrid

In the case of DCL2 (yeast two-hybrid fusion), the binding [1] is reported as “no binding”.

“FVE (Flowering locus VE, yeast two-hybrid fusion)” was tested, and the binding [1] was “binds”.

For nYFP-FVE, the binding [2] was “binds”.

B1: nYFP-SGS3 (protein, UniProt Q9LDX1 1-625)
chain: MSSRAGPMSKEKNVQGGYRPEVEQLVQGLAGTRLASSQDDGGEWEVISKKNKNKPGNTSGKTWVSQNSNPPRAWGGQQQGRGSNVSGRGNNVSGRGNGNGRGIQANISGRGRALSRKYDNNFVAPPPVSRPPLEGGWNWQARGGSAQHTAVQEFPDVEDDVDNASEEENDSDALDDSDDDLASDDYDSDVSQKSHGSRKQNKWFKKFFGSLDSLSIEQINEPQRQWHCPACQNGPGAIDWYNLHPLLAHARTKGARRVKLHRELAEVLEKDLQMRGASVIPCGEIYGQWKGLGEDEKDYEIVWPPMVIIMNTRLDKDDNDKWLGMGNQELLEYFDKYEALRARHSYGPQGHRGMSVLMFESSATGYLEAERLHRELAEMGLDRIAWGQKRSMFSGGVRQLYGFLATKQDLDIFNQHSQGKTRLKFELKSYQEMVVKELRQISEDNQQLNYFKNKLSKQNKHAKVLEESLEIMSEKLRRTAEDNRIVRQRTKMQHEQNREEMDAHDRFFMDSIKQIHERRDAKEENFEMLQQQERAKVVGQQQQNINPSSNDDCRKRAEEVSSFIEFQEKEMEEFVEEREMLIKDQEKKMEDMKKRHHEEIFDLEKEFDEALEQLMYKHGLHNEDD
With B1 the binding [3] was “binds”.

B2: U1-70k (endogenous) (protein, UniProt Q42404 1-427)
chain: T1 sequence
For B2, the binding (Flag-4Myc-FVE) was “binds”.

B3: SGS3 (suppressor of gene silencing 3, yeast two-hybrid fusion) (protein, UniProt Q9LDX1 1-625)
chain: B1 chain
B3 was tested, and the binding [4] was “no binding” and the binding [5] was “binds”.
